Hit rate of the full screen: of about 290,000 compounds, about 110 (0.038%) were called active. The shares of active, inactive and inconclusive entries below differ from those in the screen. Calls follow the shape of the dose curve; as a rule, active = well fitted inhibition curve with a large enough effect in the polarisation, with a control signal flat (not every such curve was filed as active); inconclusive = small, poorly fitted or top-dose-only effect, or effect the other way, or a change in a side signal; inactive = no such curve, though single readings can be large or run the other way; the % refers to the polarisation. Potencies beside an inconclusive call are fits to weak or partial responses and may not hold up. A note “side channel” means that the fit belongs to a control or component signal, not to the main read-out.
These compounds were tested against Histone-lysine N-methyltransferase 2A (Homo sapiens) (UniProt Q03164) (assay: qHTS Fluorescence Polarization Assay for Inhibitors of MLL CXXC domain - DNA interaction). Settings: MLL-CXXC / FITC-HOXA9 DNA fluorescence polarization; activity change, negative = inhibition: at 115 µM (top of the series).
How it was run: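 Purified MLL-CXXC (added from a 7 uM solution) was preincubated 5 min at ambient with pinned compounds in 50 mM Tris-HCl pH 7.5, 50 mM NaCl, 1 mM DTT, 0.05% BSA. Fluorescein-labeled HOX-A9 DNA (50 nM solution) followed, 30 min, then polarization read.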
Potency is read from the fitted curve at half-maximal effect.

By UniProt entry, the sequences of proteins in these tests, tags left out.
UniProt Q03164, whole entry, looked up: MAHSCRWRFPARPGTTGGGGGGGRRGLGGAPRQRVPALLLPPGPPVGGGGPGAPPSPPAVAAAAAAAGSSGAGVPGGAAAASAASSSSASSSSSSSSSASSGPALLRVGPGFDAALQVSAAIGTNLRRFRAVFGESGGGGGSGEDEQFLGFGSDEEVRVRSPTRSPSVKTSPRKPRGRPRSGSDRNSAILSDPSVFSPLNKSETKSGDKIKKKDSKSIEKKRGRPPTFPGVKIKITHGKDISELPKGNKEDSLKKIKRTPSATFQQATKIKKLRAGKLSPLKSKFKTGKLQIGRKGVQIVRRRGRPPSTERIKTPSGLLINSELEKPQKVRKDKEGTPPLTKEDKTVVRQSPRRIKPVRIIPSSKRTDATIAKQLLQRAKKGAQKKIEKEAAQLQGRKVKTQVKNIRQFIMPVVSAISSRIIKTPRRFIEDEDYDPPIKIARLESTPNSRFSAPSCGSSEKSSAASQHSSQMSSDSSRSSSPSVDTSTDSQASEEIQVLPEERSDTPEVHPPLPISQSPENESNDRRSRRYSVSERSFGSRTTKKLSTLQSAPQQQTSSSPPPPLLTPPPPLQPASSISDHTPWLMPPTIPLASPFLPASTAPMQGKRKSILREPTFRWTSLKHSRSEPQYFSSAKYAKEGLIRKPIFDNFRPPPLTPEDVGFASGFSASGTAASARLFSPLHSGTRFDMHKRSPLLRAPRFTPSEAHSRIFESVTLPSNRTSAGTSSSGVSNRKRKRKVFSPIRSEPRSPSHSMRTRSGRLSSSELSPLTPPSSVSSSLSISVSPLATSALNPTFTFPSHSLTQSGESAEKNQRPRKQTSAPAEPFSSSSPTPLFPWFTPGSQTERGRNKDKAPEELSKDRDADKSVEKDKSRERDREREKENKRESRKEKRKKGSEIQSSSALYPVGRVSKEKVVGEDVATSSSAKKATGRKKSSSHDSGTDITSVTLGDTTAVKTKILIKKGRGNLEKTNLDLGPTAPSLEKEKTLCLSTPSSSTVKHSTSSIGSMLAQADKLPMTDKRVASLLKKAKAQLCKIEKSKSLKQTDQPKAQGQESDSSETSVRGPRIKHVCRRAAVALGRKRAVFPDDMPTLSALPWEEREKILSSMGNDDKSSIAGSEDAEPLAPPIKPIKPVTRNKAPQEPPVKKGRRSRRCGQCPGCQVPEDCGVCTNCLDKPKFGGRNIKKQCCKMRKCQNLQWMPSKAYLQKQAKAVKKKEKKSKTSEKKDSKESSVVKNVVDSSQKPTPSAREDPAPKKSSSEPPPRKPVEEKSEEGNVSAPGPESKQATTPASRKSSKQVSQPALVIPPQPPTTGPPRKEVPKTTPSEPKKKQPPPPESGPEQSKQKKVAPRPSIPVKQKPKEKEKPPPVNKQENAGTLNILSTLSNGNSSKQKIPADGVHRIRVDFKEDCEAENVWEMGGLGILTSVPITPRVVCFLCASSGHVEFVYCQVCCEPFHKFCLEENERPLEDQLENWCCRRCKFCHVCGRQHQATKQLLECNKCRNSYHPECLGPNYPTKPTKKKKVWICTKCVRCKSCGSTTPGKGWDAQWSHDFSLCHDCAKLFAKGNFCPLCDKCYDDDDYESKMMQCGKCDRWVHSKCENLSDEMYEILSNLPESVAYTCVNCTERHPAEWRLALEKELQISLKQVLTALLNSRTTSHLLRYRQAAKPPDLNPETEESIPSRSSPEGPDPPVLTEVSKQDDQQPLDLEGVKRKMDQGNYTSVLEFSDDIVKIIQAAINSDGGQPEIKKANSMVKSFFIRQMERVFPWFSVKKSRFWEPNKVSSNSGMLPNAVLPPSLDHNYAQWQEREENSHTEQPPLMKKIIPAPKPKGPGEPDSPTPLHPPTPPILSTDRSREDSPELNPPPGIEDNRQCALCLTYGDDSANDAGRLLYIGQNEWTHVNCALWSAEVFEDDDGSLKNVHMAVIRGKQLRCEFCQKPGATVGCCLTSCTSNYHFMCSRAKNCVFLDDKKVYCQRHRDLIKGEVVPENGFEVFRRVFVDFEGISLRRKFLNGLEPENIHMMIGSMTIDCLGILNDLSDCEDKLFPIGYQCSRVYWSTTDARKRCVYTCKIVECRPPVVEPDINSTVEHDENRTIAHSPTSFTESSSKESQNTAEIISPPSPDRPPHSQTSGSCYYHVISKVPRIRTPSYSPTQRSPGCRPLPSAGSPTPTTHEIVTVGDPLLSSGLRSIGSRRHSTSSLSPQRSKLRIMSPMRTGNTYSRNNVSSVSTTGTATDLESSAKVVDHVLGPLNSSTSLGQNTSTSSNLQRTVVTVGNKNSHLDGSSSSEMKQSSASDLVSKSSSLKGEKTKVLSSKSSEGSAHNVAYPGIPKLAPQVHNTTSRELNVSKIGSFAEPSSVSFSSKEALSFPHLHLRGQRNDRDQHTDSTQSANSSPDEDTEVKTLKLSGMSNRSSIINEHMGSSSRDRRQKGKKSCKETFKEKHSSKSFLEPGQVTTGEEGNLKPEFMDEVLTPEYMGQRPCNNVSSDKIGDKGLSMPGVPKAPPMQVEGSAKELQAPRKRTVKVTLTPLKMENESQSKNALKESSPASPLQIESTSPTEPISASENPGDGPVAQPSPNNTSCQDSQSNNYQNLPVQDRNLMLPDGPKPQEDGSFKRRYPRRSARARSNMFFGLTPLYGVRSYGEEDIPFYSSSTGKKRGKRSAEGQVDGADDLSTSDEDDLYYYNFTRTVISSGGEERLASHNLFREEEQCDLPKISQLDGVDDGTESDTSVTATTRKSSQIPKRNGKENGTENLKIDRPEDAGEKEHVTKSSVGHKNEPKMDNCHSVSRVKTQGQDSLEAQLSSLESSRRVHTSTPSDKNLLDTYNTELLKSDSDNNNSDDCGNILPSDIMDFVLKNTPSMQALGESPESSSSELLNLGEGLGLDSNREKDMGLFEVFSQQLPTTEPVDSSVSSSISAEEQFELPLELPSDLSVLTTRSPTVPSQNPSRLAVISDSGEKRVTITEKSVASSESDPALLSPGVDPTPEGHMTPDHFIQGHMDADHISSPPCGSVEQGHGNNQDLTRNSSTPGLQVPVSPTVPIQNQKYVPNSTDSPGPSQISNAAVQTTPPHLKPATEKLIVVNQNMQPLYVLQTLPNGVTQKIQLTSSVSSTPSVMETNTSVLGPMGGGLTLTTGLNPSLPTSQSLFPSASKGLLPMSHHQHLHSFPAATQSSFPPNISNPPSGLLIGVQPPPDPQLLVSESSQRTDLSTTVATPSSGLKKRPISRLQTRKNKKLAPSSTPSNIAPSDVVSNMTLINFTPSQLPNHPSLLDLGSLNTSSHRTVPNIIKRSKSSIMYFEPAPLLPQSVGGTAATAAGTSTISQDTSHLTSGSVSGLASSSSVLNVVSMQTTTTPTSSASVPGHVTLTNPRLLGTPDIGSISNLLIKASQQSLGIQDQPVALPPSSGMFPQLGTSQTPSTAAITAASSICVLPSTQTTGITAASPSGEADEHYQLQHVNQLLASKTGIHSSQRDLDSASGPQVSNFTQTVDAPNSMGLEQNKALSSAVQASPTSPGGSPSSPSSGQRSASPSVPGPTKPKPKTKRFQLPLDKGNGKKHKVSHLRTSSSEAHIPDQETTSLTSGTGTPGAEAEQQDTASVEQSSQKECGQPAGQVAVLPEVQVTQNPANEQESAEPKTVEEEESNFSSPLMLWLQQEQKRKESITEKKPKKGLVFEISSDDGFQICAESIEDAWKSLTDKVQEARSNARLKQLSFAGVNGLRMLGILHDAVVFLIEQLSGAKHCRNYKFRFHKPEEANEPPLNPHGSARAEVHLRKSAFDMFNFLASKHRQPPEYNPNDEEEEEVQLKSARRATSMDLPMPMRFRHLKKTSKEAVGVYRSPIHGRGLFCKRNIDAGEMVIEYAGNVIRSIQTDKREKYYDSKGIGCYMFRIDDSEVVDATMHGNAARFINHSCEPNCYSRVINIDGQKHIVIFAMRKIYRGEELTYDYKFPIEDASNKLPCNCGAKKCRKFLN

Row | Structure (SMILES) | Potency | activity change, negative = inhibition
1 | CC(C)CN1C(=O)c2ccc(NC(=O)c3ccco3)cc2C1=O | inconclusive: 11.2 µM [inhibitor, single point] | 
2 | COc1ccc(C(C2C(=O)CC(C)(C)CC2=O)C2C(=O)CC(C)(C)CC2=O)cc1 | inconclusive: 31.6 µM [inhibitor, partial curve] | 
3 | CS(=O)(=O)NCC(c1ccco1)N1CCN(c2ccc(F)cc2)CC1 (centres undefined) | inconclusive: 14.1 µM [inhibitor, single point] | 
4 | CN(C)C(=O)c1ccc(-n2cccn2)nc1 | inconclusive: 70.8 µM [fluorescent, side channel, single point] | 
5 | O=C1C=C(Nc2ccc(O)cc2)CC(c2ccco2)C1 (centres undefined) | inconclusive: 12.6 µM [inhibitor, single point] | 
6 | COc1ccc(C(=O)Nc2ccc(N3CCN(C(=O)c4ccccc4)CC3)cc2)cc1[N+](=O)[O-] | inconclusive: 28.2 µM [inhibitor, partial curve, poor fit] | 
7 | COC(=O)c1cc(OC)c(OC)cc1NC(=O)c1ccc(OC)c(OC)c1 | inconclusive: 6.31 µM [quencher, side channel, partial curve] | 
8 | COCCNC(=O)c1ccc(CN2CCOCC2)cc1 | inconclusive: 1 µM [inhibitor, partial curve, poor fit] | 
9 | Cc1cc(NN)nc(NS(=O)(=O)c2ccc(Cl)cc2)n1 | inconclusive: 15.8 µM [quencher, side channel, single point] | 
10 | C=CCn1c(=O)/c(=C/c2cc(OC)c(OC)c(OC)c2)s/c1=C(/C#N)c1nc2ccccc2n1C | inconclusive: 35.5 µM [fluorescent, side channel, partial curve] | 
11 | COc1cc(/C=N\NC(=O)c2ccc(C)nc2)ccc1OC(=O)c1ccc2c(c1)OCO2 |  | inconclusive: 3.93% [phenotype inactive]
12 | CCN1CCCc2cc(CN(CCN3CCOCC3)C(=S)Nc3ccccc3OC)ccc21 | inconclusive: 39.8 µM [fluorescent, side channel, single point] | 
13 | Cc1[nH]c(=O)[nH]c1C(=O)CCCCC(=O)O |  | inactive: 3.4%
14 | COC(=O)c1ccc2c(=O)[nH]c(CCl)nc2c1 |  | inactive: -4.59%
15 | CCOc1cc(CNC2CCCC2)cc(Cl)c1OCc1ccc(F)cc1 | inconclusive: 8.91 µM [quencher, side channel, partial curve] | 
16 | O=C(c1ccccc1)c1ccc(O)cc1O | inconclusive: 28.2 µM [fluorescent, side channel, partial curve] | 
17 | CCOC(=O)c1cc(NC(=O)/C=C\C(=O)O)ccc1Cl | inconclusive: 7.94 µM [fluorescent, side channel, full curve] | 
18 | NS(=O)(=O)c1ccc(N=Nc2c[nH]c(=O)c(O)c2)cc1 | inconclusive: 31.6 µM [fluorescent, side channel, partial curve] | 
19 | CC(=O)c1ccc(-n2c(CCC(=O)O)ccc2-c2ccccc2)cc1 | inconclusive: 35.5 µM [fluorescent, side channel, single point] | 
20 | COc1ccc(C(=O)NNC(=O)c2ccc(S(=O)(=O)N3CC(C)OC(C)C3)cc2)cc1 (centres undefined) | inconclusive: 8.91 µM [fluorescent, side channel, partial curve] | 

Row | Structure (SMILES) | Potency | activity change, negative = inhibition
21 | CCCN1CCN(S(=O)(=O)c2cn(C)nc2C)CC1 | inconclusive: 89.1 µM [inhibitor, single point] | 
22 | Cc1ccc(-c2n[nH]c(=O)c3ccccc23)cc1S(=O)(=O)N(C)CCO | inconclusive: 14.1 µM [quencher, side channel, single point] | 
23 | Cc1ccc2oc(=O)cc(CN3CCCCC3)c2c1 | inconclusive: 63.1 µM [fluorescent, side channel, single point] | 
24 | COc1ccccc1C1(O)CCN(CC(=O)Nc2nc(-c3ccccc3)cs2)CC1 |  | inactive: -3.04%
25 | IC(I)I |  | inactive: 0.321%
26 | Cn1nc(-c2ccccc2)c2nc3ccccc3nc21 | inconclusive: 35.5 µM [fluorescent, side channel, partial curve] | 
27 | O=C(Nc1ccc(Cl)cc1)c1csc(-c2ccccc2)n1 |  | inactive: -0.77%
28 | O=C(N/N=C\c1ccc([N+](=O)[O-])s1)C1COc2ccccc2O1 (centres undefined) | inconclusive: 15.8 µM [fluorescent, side channel, single point] | 
29 | CCCCOc1ccccc1NC(=O)C=C(C)C | inconclusive: 14.1 µM [fluorescent, side channel, single point] | 
30 | N#C/C(=C\c1ccc(Sc2ccc(Cl)cc2)o1)c1nc2ccccc2[nH]1 | inconclusive: 35.5 µM [fluorescent, side channel, single point] | 
31 | N#Cc1ccccc1CN1C(=O)S/C(=C/c2cccn2-c2ccc(C(=O)O)cc2)C1=O |  | inactive: -0.31%
32 | CCOC(=O)C1=C(c2ccccc2)N=c2s/c(=C\c3ccc(O)cc3)c(=O)n2C1c1cccs1 (centres undefined) | inconclusive: 25.1 µM [fluorescent, side channel, partial curve] | 
33 | O=C(CSc1nnc2c(n1)[nH]c1ccc(S(=O)(=O)N3CCOCC3)cc12)Nc1ccccc1Cl | inconclusive: 39.8 µM [inhibitor, single point] | 
34 | Cc1ccc(CN(Cc2cc3cc4c(cc3[nH]c2=O)OCCO4)Cc2nnnn2Cc2ccco2)cc1 |  | inactive: 10.9%
35 | COc1cc2c(cc1OC)CN(C(=O)Cc1ccccc1)CC2 | inconclusive: 70.8 µM [fluorescent, side channel, partial curve] | 
36 | Nc1nc2sc3c(c2cc1C(=O)NCC(=O)O)CCCC3 | inconclusive: 11.2 µM [fluorescent, side channel, single point] | 
37 | CC1=C(C(N)=O)C(c2ccccc2[N+](=O)[O-])n2ncnc2N1 (centres undefined) | inconclusive: 31.6 µM [fluorescent, side channel, partial curve] | 
38 | CNc1cc(N2CCCC2)ccc1[N+](=O)[O-] | inconclusive: 63.1 µM [fluorescent, side channel, single point] | 
39 | O=C(OCc1nnc(-c2ccc(Br)cc2)o1)c1cncc(Br)c1 | inconclusive: 63.1 µM [fluorescent, side channel, single point] | 
40 | CN(/C=C/C(=C/C=[N+](C)c1ccccc1)OCCCS(=O)(=O)[O-])c1ccccc1 | inconclusive: 50.1 µM [fluorescent, side channel, single point] | 

Structural class, those above with a Cl atom (seven)
Row | Structure (SMILES) | Potency | activity change, negative = inhibition
9 | Cc1cc(NN)nc(NS(=O)(=O)c2ccc(Cl)cc2)n1 | inconclusive: 15.8 µM [quencher, side channel, single point] | 
14 | COC(=O)c1ccc2c(=O)[nH]c(CCl)nc2c1 |  | inactive: -4.59%
15 | CCOc1cc(CNC2CCCC2)cc(Cl)c1OCc1ccc(F)cc1 | inconclusive: 8.91 µM [quencher, side channel, partial curve] | 
17 | CCOC(=O)c1cc(NC(=O)/C=C\C(=O)O)ccc1Cl | inconclusive: 7.94 µM [fluorescent, side channel, full curve] | 
27 | O=C(Nc1ccc(Cl)cc1)c1csc(-c2ccccc2)n1 |  | inactive: -0.77%
30 | N#C/C(=C\c1ccc(Sc2ccc(Cl)cc2)o1)c1nc2ccccc2[nH]1 | inconclusive: 35.5 µM [fluorescent, side channel, single point] | 
33 | O=C(CSc1nnc2c(n1)[nH]c1ccc(S(=O)(=O)N3CCOCC3)cc12)Nc1ccccc1Cl | inconclusive: 39.8 µM [inhibitor, single point] | 

A second format for some results above.
Row	Structure (SMILES)	Potency	activity change, negative = inhibition
13	Cc1[nH]c(=O)[nH]c1C(=O)CCCCC(=O)O		inactive: 3.4%
33	O=C(CSc1nnc2c(n1)[nH]c1ccc(S(=O)(=O)N3CCOCC3)cc12)Nc1ccccc1Cl	inconclusive: 39.8 µM [inhibitor, single point]	

More results.

Row | Structure (SMILES) | Potency | activity change, negative = inhibition
41 | CCOC(=O)/C(C#N)=C/c1ccc(-c2ccsc2C(=O)OC)o1 | inconclusive: 31.6 µM [fluorescent, side channel, partial curve] | 
42 | CN1/C(=C\C=C(C#N)C#N)C(C)(C)c2ccccc21 | inconclusive: 11.2 µM [fluorescent, side channel, full curve] | 
43 | Cc1ccc(NC(=O)C(=Cc2ccc(C(=O)O)cc2)C(=O)Nc2ccc(C)cc2C)c(C)c1 |  | inactive: 23.3%
44 | COc1cccc2cc(C(=O)NCc3ccc(Cl)cc3)c(=N)oc12 | inconclusive: 8.91 µM [quencher, side channel, partial curve] | 
45 | CCOC(=O)N1CCN(c2cc(NCCC(=O)O)c3c4c(onc24)-c2ccccc2C3=O)CC1 | inconclusive: 28.2 µM [fluorescent, side channel, partial curve] | 
46 | COc1cc(OC)c(C2CC(=O)N3CN(c4ccc(C)cc4)CSC3=C2C#N)cc1OC (centres undefined) |  | inactive: 3.21%
47 | O=C1/C(=C\c2ccc(-c3ccccc3Cl)o2)SC(=S)N1CC1CCCO1 (centres undefined) | inconclusive: 31.6 µM [fluorescent, side channel, partial curve] | 
48 | Oc1ccc(/C=N/n2c(-c3ccco3)csc2=Nc2cccnc2)c(O)c1 | inconclusive: 89.1 µM [quencher, side channel, single point] | 
49 | CC12CC(O)C3c4ccc(O)cc4CCC3C1CC/C2=N\O (centres undefined) | inconclusive: 1.41 µM [fluorescent, side channel, full curve] | 
50 | CC1(C)CC(=O)c2c(nc3ccccc3c2N)C1 |  | inactive: 11.7%
51 | O=C(O)c1cccc(N2C(=O)c3cccc(Oc4ccc(Cl)cc4)c3C2=O)c1 | inconclusive: 3.55 µM [fluorescent, side channel, full curve] | 
52 | N#CC1=C(N)SC(N)=C(C#N)C1c1cccc(O)c1 | inconclusive: 63.1 µM [fluorescent, side channel, single point] | 
53 | CCOc1cc(C2NC(=O)NC(c3ccccc3)=C2C(=O)c2ccccc2)c(Br)cc1OCC(=O)O (centres undefined) | inconclusive: 15.8 µM [fluorescent, side channel, full curve, poor fit] | 
54 | CCOC(=O)c1cnc2c(OC)cccc2c1N1CCN(c2ccc(OC)cc2)CC1 |  | inactive: 0.696%
55 | COc1ccc(Cn2c(SCc3cc(C)ccc3C)nc3cc(OC)c(OC)cc3c2=N)cc1 | inconclusive: 11.2 µM [quencher, side channel, partial curve] | 
56 | Cc1ccc(CNc2nc3c([nH]2)c(=O)n(C)c(=O)n3C)cc1 |  | inactive: 5.12%
57 | O=C(N/N=C/c1cc(Br)ccc1O)C(=O)Nc1ccccc1OC(F)(F)C(F)F | inconclusive: 7.94 µM [quencher, side channel, full curve] | 
58 | c1ccc(N2CCN(c3nc(NCc4ccco4)c4ccccc4n3)CC2)cc1 | inconclusive: 22.4 µM [quencher, side channel, partial curve] | 
59 | Cn1cccc1/C=C1\SC(=O)N(c2ccc(O)cc2)C1=O | inconclusive: 89.1 µM [fluorescent, side channel, single point] | 
